Measurements taken from patent US20070010429A1, “Phospholipid formulations and uses thereof in lung disease detection and treatment” (The Hospital For Sick Children, priority 2005, published 2007).

Assay: Content of PC species in rat BALF during development (mass spectral analysis)
Details: for Content of PC in Fetal Rat BALF, % Total PC, Day 19: fetal day 19, N = 4 BALF samples; for Content of PC in Fetal Rat BALF, % Total PC, Day 22: fetal day 22, N = 4 BALF samples, *P ≦ 0.01; for proportion (fractional concentration) of total PC in BALF at birth: at/around birth

Compound	Content of PC in Fetal Rat BALF, % Total PC, Day 19	Content of PC in Fetal Rat BALF, % Total PC, Day 22	proportion (fractional concentration) of total PC in BALF at birth (rat BALF)	Content of PC in Fetal Rat BALF, % Total PC, Day 19 (listed as 16:0/16:0PC)	fractional concentration in BALF after birth (rat BALF, after birth)
CCCCCCCC/C=C\CCCCCCCC(=O)O[C@H](COC(=O)CCCCCCCCCCCCCCC)COP(=O)([O-])OCC[N+](C)(C)C [16.0/18:1, Palmitoyloleoyl Phosphatidylcholine]	24.5 +/− 0.9 % Total PC	8.6 +/− 0.3* % Total PC	9%	–	–
CCCCCCCCCCCCCCCC(=O)OC[C@H](COP(=O)([O-])OCC[N+](C)(C)C)OC(=O)CCCCCCCCCCCCC [16:0/14:0, Palmitoylmyristoyl Phosphatidylcholine]	9.0 +/− 0.4 % Total PC	13.2 +/− 0.3* % Total PC	–	–	–
CCCCCCCCCCCCCCCC(=O)OC[C@H](COP(=O)([O-])OCC[N+](C)(C)C)OC(=O)CCCCCCCCCCCCCCC [16:0/16:0, Dipalmitoyl Phosphatidylcholine, reference compound]	22.9 +/− 0.4 % Total PC	38.8 +/− 0.5* % Total PC	40%	23 % Total PC	~40%
Palmitoylpalmitoleoyl Phosphatidylcholine [16:0/16:1]	14.1 +/− 0.5 % Total PC	33.0 +/− 0.3* % Total PC	33%	–	–
